PubChem BioAssay AID504774, Drosophila RNAi Screening Center, 2011

- Purpose: 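Fly genes whose loss alters survival after alkylation damage to DNA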 (primary screen)
- Cell system: Drosophila Kc167 cells
- Knock-down reagent: long dsRNA against Drosophila genes, about 0.25 µg dsRNA per well
- Duration: about 6 days: 3 days knock-down, then 3 days with or without MMS
- Challenge: methyl methanesulphonate 0.004% (w/v) for 3 days after knock-down
- Measurement: 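Viability in wells given MMS, read as ATP luminescence, normalised by quantiles plate by plate and averaged across replicates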
- Scale: mean viability with MMS and viability with MMS: higher = more surviving cells after MMS
The screen tested about 23,000 reagents; this is an unselected part of those that have a named target and a result. 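Values are quantile-normalised luminescence on an arbitrary scale; higher means more cells surviving MMS.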 Reagents against one gene are numbered here. Reagent sequences are not shown.

gene knocked down | reagent | mean viability with MMS | viability with MMS, replicate 1 | viability with MMS, replicate 2
HnRNP-K | 1 | 3.52e6 | 3.96e6 | 4.03e6
HnRNP-K | 2 | 3.52e6 | 4.00e6 | 4.00e6
Rab6 | 1 | 3.65e6 | 4.25e6 | 4.07e6
LysE | 1 | 3.66e6 | 4.10e6 | 4.16e6
CG34290 | 1 | 3.49e6 | 3.83e6 | 4.09e6
mbo | 1 | 3.59e6 | 4.07e6 | 4.11e6
CG13794 | 1 | 3.74e6 | 4.55e6 | 3.95e6
Utx | 1 | 3.65e6 | 4.62e6 | 3.65e6
CG10949 | 1 | 3.45e6 | 3.99e6 | 3.81e6
CG34461 | 1 | 3.48e6 | 3.84e6 | 4.06e6
Dpy-30L2 | 1 | 3.55e6 | 4.03e6 | 4.01e6
Trf5 | 1 | 3.52e6 | 3.96e6 | 4.03e6
CG10175 | 1 | 3.59e6 | 4.02e6 | 4.12e6
CG10175 | 2 | 3.68e6 | 4.24e6 | 4.10e6
CG10175 | 3 | 3.37e6 | 3.90e6 | 3.87e6
CG8152 | 1 | 3.62e6 | 4.19e6 | 4.09e6
CG17121 | 1 | 3.64e6 | 4.18e6 | 4.08e6
AQP | 1 | 3.54e6 | 3.92e6 | 4.06e6
CG12684 | 1 | 3.60e6 | 4.10e6 | 4.06e6
mew | 1 | 3.34e6 | 3.83e6 | 3.72e6
mew | 2 | 3.46e6 | 3.98e6 | 3.84e6
ng2 | 1 | 3.53e6 | 3.99e6 | 4.03e6
RhoGAP68F | 1 | 3.43e6 | 3.86e6 | 3.93e6
CG32237 | 1 | 3.78e6 | 4.23e6 | 4.32e6
CG32237 | 2 | 3.83e6 | 4.36e6 | 4.28e6
CG6000 | 1 | 3.60e6 | 4.14e6 | 4.03e6
Alp9 | 1 | 3.56e6 | 3.90e6 | 4.18e6
CG5172 | 1 | 3.33e6 | 3.74e6 | 3.71e6
ppk6 | 1 | 3.43e6 | 3.88e6 | 3.87e6
CG30050 | 1 | 3.58e6 | 4.03e6 | 4.05e6
tapas | 1 | 3.60e6 | 4.16e6 | 4.01e6
achi | 1 | 3.60e6 | 4.13e6 | 4.12e6
CG15545 | 1 | 3.51e6 | 3.94e6 | 3.99e6
kirre | 1 | 3.58e6 | 4.16e6 | 3.96e6
wdp | 1 | 3.58e6 | 4.07e6 | 4.06e6
blanks | 1 | 3.64e6 | 4.07e6 | 4.20e6
mdu | 1 | 2.88e6 | 3.60e6 | 3.62e6
mdu | 2 | 3.88e6 | 4.29e6 | 4.48e6
wuc | 1 | 3.61e6 | 3.91e6 | 4.42e6
CG3927 | 1 | 3.67e6 | 4.20e6 | 4.12e6
CG3927 | 2 | 3.60e6 | 4.00e6 | 4.16e6
Crtp | 1 | 3.66e6 | 4.27e6 | 4.04e6
Dbp80 | 1 | 3.70e6 | 4.16e6 | 4.15e6
Ekar | 1 | 3.64e6 | 4.22e6 | 4.04e6
CG17660 | 1 | 3.60e6 | 3.94e6 | 4.24e6
CG6296 | 1 | 3.64e6 | 4.19e6 | 4.04e6

As entered above.
CG6296, mean viability with MMS: 3.64e6
mdu #1, viability with MMS, replicate 1: 3.60e6
CG34290, viability with MMS, replicate 1 = 3.83e6
For “mean viability with MMS”, CG8152 is entered as 3.62e6
For “viability with MMS, replicate 1”, mew #2 has 3.98e6
Result for Rab6 under “mean viability with MMS”: 3.65e6
